Article PMC7588057
These are yes or no findings as the source states them, for the method shown. In cells and extracts the contact can be indirect. Some entries that bind do so weakly or less than the wild type.

Protein sequences, listed by entry. Tags and fused reporters are not part of them. Lines headed by an entry give the natural chain unless they say otherwise; changes in a name come on top.
UniProt Q0PF16: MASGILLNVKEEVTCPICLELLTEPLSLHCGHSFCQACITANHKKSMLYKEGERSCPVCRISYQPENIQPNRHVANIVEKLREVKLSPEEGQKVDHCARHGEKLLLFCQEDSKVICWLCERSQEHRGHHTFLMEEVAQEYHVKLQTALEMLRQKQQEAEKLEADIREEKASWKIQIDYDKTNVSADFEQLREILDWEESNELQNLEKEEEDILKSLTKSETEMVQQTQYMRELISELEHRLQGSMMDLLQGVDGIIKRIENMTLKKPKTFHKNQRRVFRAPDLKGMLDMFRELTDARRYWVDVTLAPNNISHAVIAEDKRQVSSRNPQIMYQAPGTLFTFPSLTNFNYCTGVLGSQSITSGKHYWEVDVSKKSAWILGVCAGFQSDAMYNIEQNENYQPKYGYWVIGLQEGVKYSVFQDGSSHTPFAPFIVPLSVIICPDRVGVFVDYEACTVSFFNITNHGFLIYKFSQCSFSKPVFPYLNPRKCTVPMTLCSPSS
UniProt Q14457: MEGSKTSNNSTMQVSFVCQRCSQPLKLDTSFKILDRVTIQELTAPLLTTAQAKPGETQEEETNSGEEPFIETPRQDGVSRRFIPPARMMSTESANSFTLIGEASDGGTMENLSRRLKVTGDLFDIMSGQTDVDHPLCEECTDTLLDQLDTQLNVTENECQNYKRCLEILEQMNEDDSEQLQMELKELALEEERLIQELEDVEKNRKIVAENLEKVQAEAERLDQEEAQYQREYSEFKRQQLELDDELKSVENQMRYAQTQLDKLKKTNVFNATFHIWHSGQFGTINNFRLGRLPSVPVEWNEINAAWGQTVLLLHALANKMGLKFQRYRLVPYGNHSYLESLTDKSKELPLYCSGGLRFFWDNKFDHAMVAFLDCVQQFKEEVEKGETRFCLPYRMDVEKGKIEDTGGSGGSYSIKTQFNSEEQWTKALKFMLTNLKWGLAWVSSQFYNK

Key:
[1] = biological target: GFP-TRIM5 (tripartite motif-containing protein 5, isoform α), wild type (UniProt Q0PF16); experiment: co-IP; lysates of transiently transfected HEK293T cells, IP lysis buffer with 1% NP-40; immunoprecipitation with anti-GFP (for the TRIM5-TAK1 pair also with anti-FLAG), immunoblot; TRIM5-TAK1 also in ULK1, BECN1 and ATG7 knockout HEK293T cells
[2] = biological target: GFP-TRIM5 ΔLIR1/2 mutant (F187A, L190A, W196A, E197A) (UniProt Q0PF16); experiment: as above

- binding [1]: binds
- binding [2]: binds
Substance: FLAG-BECN1 (from UniProt Q14457 1-450)
